Test [1] addresses T1, Adipose triglyceride lipase (ATGL), endogenous human (human (endogenous in Chang liver cells, HepG2 cells and human liver tissue)) (UniProt Q96AD5).
T1 sequence: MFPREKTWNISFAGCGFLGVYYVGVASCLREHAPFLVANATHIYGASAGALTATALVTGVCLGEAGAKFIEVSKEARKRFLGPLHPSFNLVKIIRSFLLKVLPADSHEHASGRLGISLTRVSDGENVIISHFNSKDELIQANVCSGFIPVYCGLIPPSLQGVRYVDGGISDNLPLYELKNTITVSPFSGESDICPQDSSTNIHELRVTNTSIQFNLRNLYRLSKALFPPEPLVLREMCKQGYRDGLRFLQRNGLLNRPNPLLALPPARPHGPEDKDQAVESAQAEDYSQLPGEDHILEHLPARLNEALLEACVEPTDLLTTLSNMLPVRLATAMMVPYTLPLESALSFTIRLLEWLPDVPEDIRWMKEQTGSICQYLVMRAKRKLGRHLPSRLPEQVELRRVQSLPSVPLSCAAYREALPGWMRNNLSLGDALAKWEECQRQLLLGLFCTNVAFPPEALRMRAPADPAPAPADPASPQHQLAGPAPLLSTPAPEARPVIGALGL
Briefly: co-IP; endogenous proteins in lysates of Chang liver cells and HepG2 cells; 1000 μg lysate with 8 μg anti-ATGL or anti-BTRC antibody overnight at 4°C, Protein A/G Sepharose beads 4 h at 4°C, four washes with lysis buffer, western blotting; IgG as negative control.

The target in test [2] is T1, Adipose triglyceride lipase (ATGL), endogenous human (human (endogenous in Chang liver cells, HepG2 cells and human liver tissue)). Description: co-IP; endogenous proteins in mouse and human liver tissue homogenates; 1000 μg homogenate with 8 μg anti-ATGL or anti-BTRC antibody overnight at 4°C, Protein A/G Sepharose beads 4 h at 4°C, four washes with lysis buffer, western blotting; IgG as negative control. For orientation: Immunoblotting shows a protein as a band on a membrane.

The target in test [3] is T2, Adipose triglyceride lipase (ATGL), human, overexpressed from plasmid (human) (UniProt Q96AD5).
T2 sequence: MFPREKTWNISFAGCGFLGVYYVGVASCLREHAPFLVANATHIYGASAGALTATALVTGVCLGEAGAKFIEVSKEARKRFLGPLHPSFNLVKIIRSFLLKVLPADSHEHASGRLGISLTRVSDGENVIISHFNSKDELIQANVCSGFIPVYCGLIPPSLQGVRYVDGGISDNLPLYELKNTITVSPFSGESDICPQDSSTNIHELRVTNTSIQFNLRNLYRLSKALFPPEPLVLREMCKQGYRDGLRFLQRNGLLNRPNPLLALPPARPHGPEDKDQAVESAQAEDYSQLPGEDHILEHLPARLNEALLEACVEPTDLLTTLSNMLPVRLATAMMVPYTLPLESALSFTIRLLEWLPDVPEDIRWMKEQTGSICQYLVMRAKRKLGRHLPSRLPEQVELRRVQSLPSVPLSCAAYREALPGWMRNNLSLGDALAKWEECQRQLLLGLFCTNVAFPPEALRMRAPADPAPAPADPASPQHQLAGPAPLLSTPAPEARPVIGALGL
Description: co-IP; lysates of HEK293A cells co-expressing BTRC and ATGL; 1000 μg lysate with 8 μg anti-ATGL or anti-BTRC antibody overnight at 4°C, Protein A/G Sepharose beads 4 h at 4°C, four washes with lysis buffer, western blotting; IgG as negative control.

Test [4] has as its target T3, Adipose triglyceride lipase (ATGL), endogenous mouse (mouse (endogenous in mouse liver tissue)) (UniProt Q8BJ56).
T3 sequence: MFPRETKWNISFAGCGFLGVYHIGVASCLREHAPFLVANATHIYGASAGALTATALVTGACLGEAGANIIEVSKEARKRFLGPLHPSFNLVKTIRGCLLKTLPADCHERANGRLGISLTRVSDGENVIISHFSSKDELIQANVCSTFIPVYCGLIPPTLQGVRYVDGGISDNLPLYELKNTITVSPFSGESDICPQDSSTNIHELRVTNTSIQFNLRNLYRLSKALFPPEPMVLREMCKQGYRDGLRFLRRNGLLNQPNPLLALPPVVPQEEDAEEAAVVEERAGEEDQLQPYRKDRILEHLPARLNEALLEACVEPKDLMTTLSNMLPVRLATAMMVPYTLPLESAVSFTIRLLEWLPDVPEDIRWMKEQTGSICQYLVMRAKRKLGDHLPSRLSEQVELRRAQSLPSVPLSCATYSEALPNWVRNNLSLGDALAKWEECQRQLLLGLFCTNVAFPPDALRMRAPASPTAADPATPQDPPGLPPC
Briefly: co-IP; endogenous proteins in mouse and human liver tissue homogenates; 1000 μg homogenate with 8 μg anti-ATGL or anti-BTRC antibody overnight at 4°C, Protein A/G Sepharose beads 4 h at 4°C, four washes with lysis buffer, western blotting; IgG as negative control.

These are yes or no findings as the source states them, for the method shown. Binding seen in cells or lysates may run through a third protein. Some entries that bind do so weakly or less than the wild type.

Consider “Beta-transducin repeat containing (BTRC), endogenous human (from UniProt Q9Y297 1-605)”, for which the binding result in test [1] and in test [2] was “binds” in each case. Turning to “Beta-transducin repeat containing (BTRC), human, overexpressed from plasmid (from UniProt Q9Y297 1-605)”, the binding result in test [3] was “binds”.

B1: Beta-transducin repeat containing (BTRC), endogenous mouse (protein, UniProt Q3ULA2 1-605)
chain: MDPAEAVLQEKALKFMCSMPRSLWLGCSSLADSMPSLRCLYNPGTGALTAFQNSSEREDCNNGEPPRKIIPEKNSLRQTYNSCARLCINQETVCLTSTAMKTENCVAKAKLANGTSSMIVPKQRKLSASYEKEKELCVKYFEQWSESDQVEFVEHLISQMCHYQHGHINSYLKPMLQRDFITALPARGLDHIAENILSYLDAKSLCAAELVCKEWYRVTSDGMLWKKLIERMVRTDSLWRGLAERRGWGQYLFKNKPPDENAPPNSFYRALYPKIIQDIETIESNWRCGRHSLQRIHCRSETSKGVYCLQYDDQKIVSGLRDNTIKIWDKSTLECKRILTGHTGSVLCLQYDERVIITGSSDSTVRVWDVNAGEMLNTLIHHCEAVLHLRFNNGMMVTCSKDRSIAVWDMASPTDITLRRVLVGHRAAVNVVDFDDKYIVSASGDRTIKVWNTSTCEFVRTLNGHKRGIACLQYRDRLVVSGSSDNTIRLWDIECGACLRVLEGHEELVRCIRFDNKRIVSGAYDGKIKVWDLMAALDPRAPAGTLCLRTLVEHSGRVFRLQFDEFQIVSSSHDDTILIWDFLNDPAAHAEPPRSPSRTYTYISR
Regarding B1, in test [4], the binding entry is recorded as “binds”.

These data come from article PMC10993717.
